Measured values reported in patent publication US20030108872A1, “Genomics-assisted rapid identification of targets” (priority 2000, published 2003).

Test system: E. coli
Assay: Mutation frequency to resistance with and without MNNG treatment
Type: cell-based
Conditions: LB agar with 2 to 8 fold MIC of antibiotic
[1] = after MNNG treatment (400 μg/ml, 20 minutes)

Structure (SMILES) | mutation frequency to resistance [1] | mutation frequency to resistance (before MNNG treatment)
CCn1cc(C(=O)O)c(=O)c2ccc(C)nc21 [nalidixic acid] | 1.6×10^−6 | 3.5×10^−8
Oc1cc(Cl)ccc1Oc1ccc(Cl)cc1Cl [triclosan] | 3.2×10^−8 | < 10^−9
